Laboratory results taken from publication PMC12463063.
The exact form of at least one protein or probe is not confirmed. Results from cells or extracts need not show a direct contact.

System: GhVOZ1 (Gossypium hirsutum)
Experiment: EMSA
Conditions: nuclear extract; 25 °C for 30 min with nuclear extract; non-denaturing 6% PAGE in 0.5x TBE, 60 V, 4 °C, 1 h; binding buffer, salt and pH not stated; protein in an extract; label: 5'-biotin

Sequence: CAGTAGAACGCTCTCAAC (double strand) [GhGA3ox1 promoter P1 probe]
- binding result: binds
